Test [1] has as its target ATRX (endogenous, mouse brain and cortical neurons) (mouse (endogenous in mouse brain and cortical neurons)) (UniProt Q61687). The experiment in a line: co-IP; mouse whole-brain extracts, endogenous proteins (Figure S1I); details in the Supplemental Experimental Procedures.
The target is the same in test [2]. The experiment in a line: co-IP; extracts of isolated mouse cortical neurons, endogenous proteins, untreated or treated with KCl (Figure S2J).

Sequences of proteins named here, by UniProt entry; tags and fusion partners are left off.
UniProt Q61687: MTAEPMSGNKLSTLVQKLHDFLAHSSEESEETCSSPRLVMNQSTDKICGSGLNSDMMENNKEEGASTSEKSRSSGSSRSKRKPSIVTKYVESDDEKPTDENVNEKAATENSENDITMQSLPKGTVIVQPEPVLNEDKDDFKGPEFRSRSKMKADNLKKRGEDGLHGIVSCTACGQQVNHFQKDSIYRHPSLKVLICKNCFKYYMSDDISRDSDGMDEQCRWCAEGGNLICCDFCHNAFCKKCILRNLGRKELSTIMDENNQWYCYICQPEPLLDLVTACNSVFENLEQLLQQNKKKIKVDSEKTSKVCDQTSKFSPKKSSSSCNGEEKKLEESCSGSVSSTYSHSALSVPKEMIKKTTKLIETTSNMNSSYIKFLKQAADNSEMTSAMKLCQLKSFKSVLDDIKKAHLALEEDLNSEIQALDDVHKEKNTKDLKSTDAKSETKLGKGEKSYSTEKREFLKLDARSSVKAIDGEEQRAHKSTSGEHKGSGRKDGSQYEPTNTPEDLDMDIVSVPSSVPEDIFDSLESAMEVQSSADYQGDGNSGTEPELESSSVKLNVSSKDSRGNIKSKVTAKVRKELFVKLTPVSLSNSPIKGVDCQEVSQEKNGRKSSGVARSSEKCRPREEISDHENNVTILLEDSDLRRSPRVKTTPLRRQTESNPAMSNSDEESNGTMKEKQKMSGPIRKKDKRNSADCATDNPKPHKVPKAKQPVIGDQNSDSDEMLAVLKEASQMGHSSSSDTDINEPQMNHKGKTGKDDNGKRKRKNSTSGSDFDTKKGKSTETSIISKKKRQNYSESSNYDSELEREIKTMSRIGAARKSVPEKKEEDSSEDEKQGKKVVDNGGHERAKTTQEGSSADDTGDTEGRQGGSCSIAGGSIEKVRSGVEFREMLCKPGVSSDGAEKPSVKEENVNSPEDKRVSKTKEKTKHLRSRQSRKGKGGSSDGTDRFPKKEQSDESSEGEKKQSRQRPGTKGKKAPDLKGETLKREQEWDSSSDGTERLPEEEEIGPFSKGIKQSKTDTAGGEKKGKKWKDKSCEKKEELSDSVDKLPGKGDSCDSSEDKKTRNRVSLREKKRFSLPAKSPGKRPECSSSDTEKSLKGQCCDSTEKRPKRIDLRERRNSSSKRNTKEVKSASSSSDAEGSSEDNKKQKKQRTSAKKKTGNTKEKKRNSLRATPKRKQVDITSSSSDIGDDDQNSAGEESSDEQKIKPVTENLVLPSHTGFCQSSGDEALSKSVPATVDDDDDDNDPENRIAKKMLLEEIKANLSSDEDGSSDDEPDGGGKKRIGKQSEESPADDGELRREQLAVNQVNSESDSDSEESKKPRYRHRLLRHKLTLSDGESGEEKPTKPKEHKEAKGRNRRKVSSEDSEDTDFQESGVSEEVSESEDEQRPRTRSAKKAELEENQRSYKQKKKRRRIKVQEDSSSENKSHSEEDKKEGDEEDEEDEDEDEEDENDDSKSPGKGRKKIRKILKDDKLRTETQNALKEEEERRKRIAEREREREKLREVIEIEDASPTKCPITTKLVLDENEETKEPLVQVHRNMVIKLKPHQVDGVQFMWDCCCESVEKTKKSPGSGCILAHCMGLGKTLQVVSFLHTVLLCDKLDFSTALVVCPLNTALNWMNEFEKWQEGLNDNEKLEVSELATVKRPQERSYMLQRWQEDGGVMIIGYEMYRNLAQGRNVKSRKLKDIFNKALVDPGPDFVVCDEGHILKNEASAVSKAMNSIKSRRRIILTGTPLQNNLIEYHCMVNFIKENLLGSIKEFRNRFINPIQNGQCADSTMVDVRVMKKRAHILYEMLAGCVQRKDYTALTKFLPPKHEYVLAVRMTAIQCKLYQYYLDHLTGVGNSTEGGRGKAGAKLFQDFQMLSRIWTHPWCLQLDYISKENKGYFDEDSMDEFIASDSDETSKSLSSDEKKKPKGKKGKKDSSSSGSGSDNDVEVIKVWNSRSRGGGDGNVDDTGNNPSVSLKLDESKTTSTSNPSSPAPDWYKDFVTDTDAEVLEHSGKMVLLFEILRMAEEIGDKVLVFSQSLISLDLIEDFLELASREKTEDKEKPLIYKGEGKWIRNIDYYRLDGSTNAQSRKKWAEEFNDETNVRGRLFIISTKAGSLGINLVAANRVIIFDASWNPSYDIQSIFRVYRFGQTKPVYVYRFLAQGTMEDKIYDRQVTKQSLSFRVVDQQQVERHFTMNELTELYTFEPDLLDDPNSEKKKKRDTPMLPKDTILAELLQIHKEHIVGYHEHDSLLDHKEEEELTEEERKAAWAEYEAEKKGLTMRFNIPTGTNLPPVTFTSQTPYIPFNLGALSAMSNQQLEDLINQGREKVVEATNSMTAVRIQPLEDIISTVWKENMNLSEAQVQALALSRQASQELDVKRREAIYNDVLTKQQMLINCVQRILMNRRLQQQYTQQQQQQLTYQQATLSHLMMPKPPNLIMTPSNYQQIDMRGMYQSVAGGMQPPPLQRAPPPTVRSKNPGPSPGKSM
UniProt O35613: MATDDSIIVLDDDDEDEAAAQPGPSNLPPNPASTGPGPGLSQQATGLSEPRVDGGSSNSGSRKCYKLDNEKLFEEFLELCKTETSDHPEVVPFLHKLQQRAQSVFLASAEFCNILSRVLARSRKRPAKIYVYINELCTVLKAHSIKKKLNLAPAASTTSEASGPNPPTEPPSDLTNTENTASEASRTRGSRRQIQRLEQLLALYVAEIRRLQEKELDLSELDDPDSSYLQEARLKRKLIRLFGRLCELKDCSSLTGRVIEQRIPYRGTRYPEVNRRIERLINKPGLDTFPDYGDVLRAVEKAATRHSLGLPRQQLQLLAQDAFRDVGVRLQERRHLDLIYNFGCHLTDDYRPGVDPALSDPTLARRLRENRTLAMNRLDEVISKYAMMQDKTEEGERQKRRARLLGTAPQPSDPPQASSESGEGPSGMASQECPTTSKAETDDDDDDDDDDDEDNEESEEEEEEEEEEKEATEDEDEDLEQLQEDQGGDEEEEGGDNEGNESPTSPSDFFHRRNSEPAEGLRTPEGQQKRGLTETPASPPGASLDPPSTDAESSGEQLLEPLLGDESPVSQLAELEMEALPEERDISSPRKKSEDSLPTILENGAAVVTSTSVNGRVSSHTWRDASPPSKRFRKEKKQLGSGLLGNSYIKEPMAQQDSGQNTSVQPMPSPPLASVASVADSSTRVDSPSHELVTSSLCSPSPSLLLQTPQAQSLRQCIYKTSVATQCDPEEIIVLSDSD

These are yes or no findings as the source states them, for the method shown. Binding seen in cells or lysates may run through a third protein. Some binding calls cover weakened binding; strength is not graded here.

As to “DAXX (endogenous, mouse brain and cortical neurons) (from UniProt O35613 1-739)”, the binding result in test [1] and in test [2] was “binds” in each case.

Values taken from PMC3657165.
